# Percent effect of library compounds

Chains of the proteins cited; added tags and fusions are not shown.
UniProt I6X8D2, whole entry: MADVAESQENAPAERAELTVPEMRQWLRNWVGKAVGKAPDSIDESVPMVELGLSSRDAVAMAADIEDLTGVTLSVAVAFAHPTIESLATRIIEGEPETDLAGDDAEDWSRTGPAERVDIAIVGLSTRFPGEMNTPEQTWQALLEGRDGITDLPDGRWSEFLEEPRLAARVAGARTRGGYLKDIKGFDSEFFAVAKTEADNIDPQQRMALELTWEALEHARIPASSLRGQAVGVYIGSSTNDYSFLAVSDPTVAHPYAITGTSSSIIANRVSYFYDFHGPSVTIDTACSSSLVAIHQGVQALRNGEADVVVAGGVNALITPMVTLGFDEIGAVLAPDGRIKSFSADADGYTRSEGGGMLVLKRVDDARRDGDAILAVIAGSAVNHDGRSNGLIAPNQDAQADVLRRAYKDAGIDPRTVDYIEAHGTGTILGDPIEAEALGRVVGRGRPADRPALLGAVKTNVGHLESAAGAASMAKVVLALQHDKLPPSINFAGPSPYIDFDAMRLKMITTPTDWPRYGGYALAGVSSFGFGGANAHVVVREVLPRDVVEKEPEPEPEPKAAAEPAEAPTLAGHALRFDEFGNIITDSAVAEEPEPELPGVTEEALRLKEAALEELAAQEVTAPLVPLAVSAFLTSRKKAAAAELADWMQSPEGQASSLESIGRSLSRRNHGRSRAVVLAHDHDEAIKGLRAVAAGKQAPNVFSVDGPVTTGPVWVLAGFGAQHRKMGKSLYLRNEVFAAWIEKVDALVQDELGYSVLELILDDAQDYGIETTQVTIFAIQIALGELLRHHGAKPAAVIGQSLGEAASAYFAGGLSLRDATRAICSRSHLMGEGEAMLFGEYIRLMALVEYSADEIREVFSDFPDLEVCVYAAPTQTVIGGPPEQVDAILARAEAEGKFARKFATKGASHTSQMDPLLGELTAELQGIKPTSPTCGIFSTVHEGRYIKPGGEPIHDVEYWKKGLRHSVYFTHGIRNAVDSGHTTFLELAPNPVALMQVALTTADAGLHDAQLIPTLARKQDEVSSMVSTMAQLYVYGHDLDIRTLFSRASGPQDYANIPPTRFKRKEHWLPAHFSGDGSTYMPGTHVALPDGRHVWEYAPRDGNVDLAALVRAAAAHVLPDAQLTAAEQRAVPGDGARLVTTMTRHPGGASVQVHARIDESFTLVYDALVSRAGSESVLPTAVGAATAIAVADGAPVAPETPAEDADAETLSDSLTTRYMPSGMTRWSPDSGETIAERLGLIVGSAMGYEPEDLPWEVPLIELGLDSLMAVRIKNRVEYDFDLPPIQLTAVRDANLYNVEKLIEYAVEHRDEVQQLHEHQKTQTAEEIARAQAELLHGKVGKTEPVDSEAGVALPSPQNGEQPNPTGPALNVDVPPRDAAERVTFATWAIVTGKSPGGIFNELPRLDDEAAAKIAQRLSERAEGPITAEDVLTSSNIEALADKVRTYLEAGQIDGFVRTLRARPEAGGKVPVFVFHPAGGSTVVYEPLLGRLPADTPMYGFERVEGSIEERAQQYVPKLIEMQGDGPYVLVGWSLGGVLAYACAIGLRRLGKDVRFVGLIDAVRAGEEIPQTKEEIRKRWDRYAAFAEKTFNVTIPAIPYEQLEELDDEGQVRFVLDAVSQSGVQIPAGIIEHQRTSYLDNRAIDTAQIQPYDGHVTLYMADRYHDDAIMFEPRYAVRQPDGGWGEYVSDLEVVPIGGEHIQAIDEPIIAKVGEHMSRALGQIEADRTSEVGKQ
UniProt P9WPC5, whole entry: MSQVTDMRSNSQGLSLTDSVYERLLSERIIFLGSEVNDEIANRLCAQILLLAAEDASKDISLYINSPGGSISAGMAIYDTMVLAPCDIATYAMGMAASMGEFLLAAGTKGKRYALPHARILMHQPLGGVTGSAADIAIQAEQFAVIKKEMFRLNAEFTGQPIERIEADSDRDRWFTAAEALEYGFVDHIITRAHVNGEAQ
UniProt P9WPC3, whole entry partner: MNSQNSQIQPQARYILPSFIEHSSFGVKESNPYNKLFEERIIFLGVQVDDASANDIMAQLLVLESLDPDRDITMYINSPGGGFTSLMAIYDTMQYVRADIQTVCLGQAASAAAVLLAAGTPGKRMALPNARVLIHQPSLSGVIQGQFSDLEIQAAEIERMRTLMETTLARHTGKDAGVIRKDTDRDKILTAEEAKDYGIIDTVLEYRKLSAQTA

Leishmania in macrophages: 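Cell assay of Leishmania donovani living inside macrophages; the read-out is not stated. Compounds at 30 µM. Direction is inferred from retests: higher values go with stronger inhibition. Of about 69,000 compounds tested this way, about 1,000 (1.5%) reached 50% or more in at least one test.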
Pks13 thioesterase: 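Polyketide synthase Pks13, Mycobacterium tuberculosis (UniProt I6X8D2). Enzyme assay of the thioesterase domain of polyketide synthase 13; the read-out is not stated. Compounds at 30 µM. Higher reads as stronger inhibition (inferred from which compounds were picked for retests). About 67,000 compounds were tested under these conditions; 0.46% (about 300) showed 50% or more at least once.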
ClpP1P2: 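ClpP1P2, Mycobacterium tuberculosis (UniProt P9WPC5 and UniProt P9WPC3). Protease assay of ClpP1P2, read by the AMC dye that it sets free. Tested at 50 µM. Direction is inferred from only a few compounds that gave an IC50; most scored high, so higher reads as stronger inhibition. Most other retested compounds had strongly negative values. Of about 69,000 compounds tested this way, about 10 (0.015%) reached 50% or more in at least one test.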
T. brucei: 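Whole-parasite assay of Trypanosoma brucei over 72 hours; the read-out is not stated. Compounds at 30 µM. Higher reads as stronger inhibition (inferred: compounds with an IC50 in retests scored well above the rest). Values scatter widely below zero; nearly all retest evidence comes from the higher of the two concentrations used. About 64,000 compounds were tested under these conditions; 1.5% (about 940) showed 50% or more at least once.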

The filed quantity is “Percent Effect” (%).
The record does not define 0% and 100%; most values in the screen are far below 50% and negative numbers occur (in some assays of this library far below -100).
This is an unselected part of the compounds tested.
Two or more numbers in one place are separate tests of the same structure; such repeats can differ widely.
A dash means the value is not listed here; it may have been measured.

| Compound | Leishmania in macrophages | Pks13 thioesterase | ClpP1P2 | T. brucei |
|---|---|---|---|---|
| `CC(C)c1cc(C(=O)N2CCOC3(CCCC3)C2)no1` | 12.88 | -0.04985 | -4.215 | -8.839 |
| `CCCC(=O)NCC1CCCN(Cc2cc(C)c(C)o2)C1` (stereo not given) | -3.351 | 30.69 | 8.37 | -64.02 |
| `c1ccc(-c2nc(CN3CCOC(Cn4cccn4)C3)cs2)cc1` (stereo not given) | 0.4394 | -7.831 | -11.54 | -9.583 |
| `O=C(O)C(F)(F)F.O=C(O)C(F)(F)F.c1cncc(CN2CCc3ncnc(C4CCOC4)c3CC2)c1` (stereo not given) | 3 | - | - | -22.7 |
| `CC(C)OC(=O)[C@@H]1CCN(C(=O)c2ccccn2)[C@@H]1c1ccc(F)cc1` | 12.65 | 1.79 | -8.071 | - |
| `Cc1ccc(C(=O)NCc2ccc(N3CCNC(=O)C3)c(F)c2)cc1` | 19.19 | 1.287 | -13.22 | -54.6 |
| `CCC1CN(C(=O)COc2ccc(NC(C)=O)cc2)CCO1` (stereo not given) | -56.15 | -0.1077 | 11.6 | -30.31 |
| `Cc1ccccc1-n1cc(-c2ccnc(N3CCCC(O)C3)n2)cn1` (stereo not given) | 16.96 | -7.166 | -27.31 | 12.09 |
| `Cc1nccn1C1CCCN(C(=O)c2cnn(C)c2C2CC2)C1` (stereo not given) | 9.61 | -31.57 | 16.4 | -5.529 |
| `[H][C@]12CC[C@]([H])(CN(Cc3nnc(C4CC4)o3)C1)N(Cc1ccccc1)C2` | 1.101 | - | - | -8.485 |
| `Cc1ccc(C(=O)NCCN2CCOCC2)c(=O)[nH]1` | -21.88 | -61.74 | 1.339 | -15.69 |
| `CN(C)S(=O)(=O)NCC(Cc1cccc(F)c1)N1CCNC1=O` (stereo not given) | 16.41 & 14.3 | -4.568 | -7.457 | 0.06341 |
| `O=C(c1ccoc1)N1CC[C@@H]2[C@H]1CCC(=O)N2c1ccccc1` | - | -30.79 | 3.606 | - |
| `Cc1nn(C)c(Oc2ccc(Cl)cc2)c1CN1CCC(CN)C1` (stereo not given) | 74.8 | 25.11 | -2.518 | 30.97 |
| `O=C(NCC(Cc1cccc(F)c1)n1cccc1)C1CC1` (stereo not given) | 16.03 & 19.71 | -25.18 | 1.979 | 14.42 |
| `CCCNC(=O)c1cc2c(s1)CCN2c1ncccn1` | 24.35 | 8.456 | 0.5355 | -67.05 |
| `CC(C)(C)c1noc(-c2nc3c([nH]2)CCCNC3=O)n1` | 12.78 | 1.899 | -3.061 | 9.959 |
| `CN1CCN(C(=O)Cc2ccc(S(=O)(=O)C(F)F)cc2)CC1` | 13.74 | -36.54 | -4.586 | -19.59 |
| `CNC(=O)CCOC(=O)c1cccc(-n2ccc(C(F)(F)F)n2)c1` | 33.54 | -28.52 | -5.471 | -47.97 |
| `CSc1cccc(CN(C)C(=O)c2cccc(C3CCCNC3)c2)c1` (stereo not given) | 27.95 | -7.977 | -18.11 | 34.14 |
| `O=C(c1ccnnc1)N1CC[C@@H](O)[C@@H]1Cc1ccccc1` | 12.23 | -13.47 | 13.65 | 13.06 |
| `CN(C)CCOCC1CN(Cc2ccsc2)Cc2nnn(C)c21.O=C(O)C(F)(F)F.O=C(O)C(F)(F)F` (stereo not given) | -11.07 | - | - | -20.25 |
| `CCc1ccc(CN(C(=O)CCn2cc(S(N)(=O)=O)cn2)C2CC2)cc1` | 7.817 | -0.5925 | -3.144 | -23.11 |
| `CCC1(CNC(=O)NC(c2nnc3n2CCC3)C(C)C)CCC1` (stereo not given) | 13.08 | -21.04 | -17.73 | -86.42 |
| `O=C1CC(c2cccc(Cl)c2)c2snc(C(=O)O)c2N1` (stereo not given) | -27.41 | -0.9516 | -5.779 | -31.06 |
| `O=C(c1ccc(Cl)s1)N1CC(c2nc(-c3ccc[nH]c3=O)no2)C1` | 2.638 & 8.336 | 4.222 | 5.783 | 5.703 |
| `CC(NC(=O)c1cccnc1N(C)C)c1ccccc1Cl` (stereo not given) | 10.3 | -13.71 | -14.47 | -23.81 |
| `COCCN1C[C@@H]2CN(c3ncccn3)C[C@@H]2C1=O` | - | 54.82 | 5.75 | - |
| `NCCc1n[nH]c(=O)n1-c1cccc(Cl)c1Cl` | 4.495 | -11.61 | -12.52 | 18.81 |
| `CCOc1ccc(CNCCCn2ccnc2)cc1OC` | 3.86 | - | -0.9456 | -33.52 |
| `Cc1cnc(-c2nc(NC3CCCC3)ncc2-c2onc(C)c2C)cn1` | 15.46 | -0.3929 | -10.4 | -6.364 |
| `CC(=O)Nc1cnc(Oc2ccccc2F)nc1` | 2.658 | -24.48 | 3.919 | 15.35 |
| `O=C1CCN(C(=O)CCc2ccc(Cl)cc2Cl)CCN1` | 35.1 | -10.24 | 11.92 | -25.6 |
| `CCc1ncc2c(n1)CN(C(=O)Cc1cc(OC)cc(OC)c1)C2` | 44.04 | -22.82 | -1.07 | 3.639 |
| `COc1ccnc(NC(=O)c2cscn2)c1` | -41.06 | -20.36 | 1.085 | 7.926 |
| `Cc1ncncc1C(=O)N1CCCC(n2cccn2)C1` (stereo not given) | -36.95 | -26.28 | -2.126 | -15.06 |
| `Cc1ccc(N2CCCC(N3CCC(CO)CC3)C2=O)cc1` (stereo not given) | 22.57 | -4.454 | 12.14 | -3.025 |
| `Cc1cccnc1CN(C)c1ncnc2[nH]ccc12` | 22.26 | -10.02 | -3.053 | -7.759 |
| `Nc1nc(NCCO)cc(N2CCc3c([nH]c4ccccc34)C2)n1` | 50.32 | -15.27 | -38.86 | 29.03 |
| `Cc1cc2nc(C(C)C)cc(N3CCSCC3)n2n1` | -10.16 | -16.51 | 8.392 | -25.47 |
| `Cc1cc(CN(CCO)c2ccc(Br)cc2)on1` | 8.82 | -6.49 | -6.32 | -12.18 |
| `CCS(=O)(=O)NCCNC(=O)c1cnc(-c2ccccc2)nc1` | 20.85 | -12.37 | -3.555 | -0.7579 |
| `O=C(c1ccc[nH]1)N1CCC2(CC1)CC(Oc1cccnc1)CO2` (stereo not given) | 11.57 | 5.902 | -4.524 | -2.682 |
| `CO[C@H]1CC[C@H]2[C@H]1OCCN2C(=O)CCOc1ccccc1` | - | -4.969 | -4.967 | - |
| `O=C(c1cccnc1N1CCOCC1)N1CCCC(n2ccnc2)C1` (stereo not given) | 15.66 | -13.6 | 12.38 | -29.3 |
| `CC(Cn1cccn1)NC(=O)NCCN1CCc2ccccc2C1` (stereo not given) | -2.297 | -22.17 | -12.92 | -50.31 |
| `CCc1nnc(CN2CCOC(Cn3cc(C)cn3)C2)o1` (stereo not given) | 8.071 | 52.74 | -21.92 | -21.9 |
| `Cc1csc(C(Cc2ccsc2)NC(=O)CN(C)Cc2cccnc2)n1` (stereo not given) | - | 4.086 | -14.78 | - |
| `Clc1ccccc1CN1CCc2nc(C3CCCNC3)ncc2C1` (stereo not given) | - | -6.821 | -11.66 | - |
| `Cc1nc(CN2CCN(Cc3nccn3C)CC2)no1` | 11.72 | -15.82 | 1.238 | 2.037 |
| `O=C(c1ccncc1)N1CCC(Cc2cnc3[nH]ccc3c2)CC1` | 19.87 & 11.19 | -4.129 | 17.08 | 10.58 |
| `O=C(O)C(F)(F)F.[H][C@@]12C[C@@H](OCc3ccccc3F)CN1CCN(c1ncccn1)C2` | 5.517 | - | - | -62.25 |
| `COc1ccc(CN2CCCn3nnc(COCC4CC4)c3C2)cc1` | - | -1.472 | 0.669 | - |
| `COc1ncccc1CNc1snc(Cl)c1C#N` | 30.49 | 8.477 | 3.674 | -23.85 |
| `CC(C)[C@H]1CN(Cc2c[nH]cn2)C[C@@H]1NC(=O)CC1CCC1` | -32.87 | -20.84 | -10.69 | -42.64 |
| `CN(CC1CCCO1)C1CCN(CCc2ccccn2)CC1` (stereo not given) | 38.5 | -10.82 | 9.955 | 7.532 |
| `Cc1nn(C)cc1CNCc1ccc(N(C)C)cc1` | 27.21 | 16.48 | 7.152 | -17.42 |
| `CC(=O)N1CCCC2(CN(Cc3ccc(F)cc3)CCO2)C1.O=C(O)C(F)(F)F` (stereo not given) | -13.92 | - | - | -20.17 |
| `COCC1CN(C(=O)COc2ccccc2)Cc2cn(C)nc21` (stereo not given) | - | -15.79 | -2.647 | - |
| `O=C1CN(C(=O)c2cccc(C(F)(F)F)c2)CC(O)CN1CC1CC1` (stereo not given) | -12.75 | -33.5 | 10.46 | -32.73 |
| `COCCN1CCCC2(CCN(c3nccc4ccccc34)C2)C1=O` (stereo not given) | -36.4 | 10.3 | 0.6559 | -28.2 |
| `COc1ccc(NC(=O)CSC(F)(F)F)cn1` | -10.46 | -47.08 | 2.576 | -2.811 |

The last 4 entries again:

COCC1CN(C(=O)COc2ccccc2)Cc2cn(C)nc21 (stereo not given) read Pks13 thioesterase: -15.79%; ClpP1P2: -2.647%.
O=C1CN(C(=O)c2cccc(C(F)(F)F)c2)CC(O)CN1CC1CC1 (stereo not given) read Leishmania in macrophages: -12.75%; Pks13 thioesterase: -33.5%; ClpP1P2: 10.46%; T. brucei: -32.73%.
COCCN1CCCC2(CCN(c3nccc4ccccc34)C2)C1=O (stereo not given) read Leishmania in macrophages: -36.4%; Pks13 thioesterase: 10.3%; ClpP1P2: 0.6559%; T. brucei: -28.2%.
COc1ccc(NC(=O)CSC(F)(F)F)cn1 read Leishmania in macrophages: -10.46%; Pks13 thioesterase: -47.08%; ClpP1P2: 2.576%; T. brucei: -2.811%.

The values are deposited in ChEMBL (CHEMBL3988442, “University of Dundee, Small-Polar-MMV Screening Library” (2021)).